Measured values published in patent publication US20100216179A1, “Method for detecting cancer and reagents for use therein” (priority 2009, published 2010).

Test system: normal human oral keratinocyte (NHOK) cell lines
Experiment: Physisorption/desorption of adsorbent on fixed cell lines, infrared spectral imaging (oral cavity)
Format: cell-based
Conditions: desorption in xylene for 5 seconds
Excerpt: The aforementioned method may also be adopted in determining oral cavity cancer, wherein there are 5 wt % paraffin and 5 wt % beeswax in xylene using as the first adsorbent and the second adsorbent, respectively.
The procedures for determining the oral cavity cancer according to this method is similar to the process steps 1-8 of embodiment 1 described above, except for the first adsorbent comprises 5 wt % Triacontane (C30H62); the second adsorbent comprises 7.5 wt % ethyl myristate (C16H32O2).
The procedure for determining the oral cavity cancer (III) is similar to the process steps 1-4 of embodiment 1 described above, except for the first adsorbent comprises a xylene solution containing 10 wt % 3,5,5-Trimethylhexyl 3,5,5-trimethylcaproat (C18H36O2).

| Compound | absorption of adsorbed adsorbent in the spectral range 3000-2800 cm^-1 (10 wt % adsorbent in xylene) | absorption of adsorbed adsorbent in the spectral range 3000-2800 cm^-1 (7.5 wt % adsorbent) |
| --- | --- | --- |
| CC(CCOC(=O)CC(C)CC(C)(C)C)CC(C)(C)C (centres unmarked) [3,5,5-Trimethylhexyl 3,5,5-trimethylcaproat] | stronger absorption |  |
| CCCCCCCCCCCCCC(=O)OCC [ethyl myristate] |  | stronger absorption |
